## Screening data, single-dose tests

Measurements from “University of Dundee, Small-Polar-MMV Screening Library” (2021), ChEMBL document CHEMBL3988442.

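Assay of Toxoplasma gondii numbers, read through their beta-galactosidase reporter with a colour substrate. Concentration: 50 µM. The record gives no direction; the compounds picked for IC50 retests had high values, so higher reads as fewer parasites. Of about 18,000 compounds tested this way, about 170 (0.94%) reached 50% or more in at least one test.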

Results are given as percent effect.
The record does not define 0% and 100%; most values in the screen are far below 50% and negative numbers occur (in some assays of this library far below -100).
The compounds are a random part of those screened.

With CC[C@@]1(O)CCN(C(=O)c2cccnc2OC)C[C@H]1O the screen gave -5.265%. With COCc1noc(CN2CC[C@](C)(O)C(C)(C)C2)n1 the screen gave 2.139%. CNC(=O)C(C)CN(C)C(=O)Nc1c(C)cccc1Cl (stereo unspecified) gave -11.44%. Cc1ccc(F)c(N2CCCC(N)C2=O)c1 (stereo unspecified) gave 5.253%. Result for COCCN(C)C(=O)Nc1cccc(Cl)c1 was -0.7852%. COc1cncc(C(=O)Nc2ccc(F)cc2F)c1 read -66.78%. Result for CCC(C)NC(=O)C1CCN(S(C)(=O)=O)CC1 (stereo unspecified) was -1.722%. CC(C)n1cnnc1CC1CCCNC1 (stereo unspecified) gave -7.112%.

For CN(Cn1nnc2ccccc2c1=O)C1CCCC1 the result was 4.255%. CN(C)c1cc(CNC(=O)NCC2CCOC2)ccn1 (stereo unspecified) read 2.894%. With COCC(C)NC(=O)CCn1cnc2sccc2c1=O (stereo unspecified) the screen gave -6.543%. With CCC(C)N(C)C(=O)c1ccc(C(=O)OC)cc1 (stereo unspecified) the screen gave -15.1%. With CC(=O)c1cccc(OCCN(C)C)c1 the screen gave -7.37%. Result for NC[C@@H]1Cc2ccccc2CO1 was 7.666%. For C1CNCCC(N2CCOCC2)C1 (stereo unspecified) the result was 38.53%. NC1CCN(CC(F)(F)F)C1 (stereo unspecified) read -2.814%.

For CCN1CCC(NC(=O)c2c(F)cccc2OC)C1 (stereo unspecified) the result was 16.86%. Cc1nn(C)c(C(=O)NC2CC2)c1Br read -45.98%. With NC(=O)c1nnc(N)o1 the screen gave -6.231%. With CN(CCS(C)(=O)=O)c1nc2ccccc2[nH]1 the screen gave -0.1432%. With O=C(O)c1cccnc1N1CCC2(CCCNC2)C1 (stereo unspecified) the screen gave 2.386%. With C=C(C)C(C)(C)C(=O)N[C@@H]1CCOC[C@H]1OCCO the screen gave 24.77%. Result for CCc1nc(CCNC(=O)CC(C)NC(C)=O)no1 (stereo unspecified) was -5.325%. CN(CC(=O)Nc1ccsc1)C1CCS(=O)(=O)C1 (stereo unspecified) gave -6.022%.

COc1ccccc1C(C)NC(=O)Cn1cc(C)cn1 (stereo unspecified) gave 4.779%. With CC(C)(C)OC(=O)NCC1CCNC1 (stereo unspecified) the screen gave -8.126%. For COc1ccc(CNCCCN2CCCC2=O)cc1 the result was 0.5187%. Result for Cc1nn(C)c(C)c1CCCNC(=O)NC[C@@H](C)O was -9.311%. With Cc1c(C(=O)N(CC2CCOC2)C2CC2)cnn1C (stereo unspecified) the screen gave 0.6462%. Result for Cc1ccc(C(=O)NCCNS(=O)(=O)C(C)C)cc1F was 12.17%. For c1cn(C2CNC2)nn1 the result was -6.658%. Result for O=S(=O)(NCCCN1CCOCC1)C1CCCCC1 was 10.36%.

CCOC(=O)C(C)n1cnc2c1c(=O)n(C)c(=O)n2C (stereo unspecified) read -13.43%. CC(NC(=O)OC(C)(C)C)c1nnc2n1CCC2 (stereo unspecified) read -6.954%. For CC(C)(O)C(C)(C)NCC(=O)N1CCc2sccc2C1 the result was -8.278%. Result for CCN(CCS(=O)(=O)c1ccccc1)CC(=O)N(C)C was 1.701%. For Cc1cc(CC(=O)NCCSc2nnc(C)s2)on1 the result was 15.92%. With CCOc1ccc(C(=O)CCN(C)C)cc1 the screen gave -0.5962%. OCC1(O)CCCN(c2ccnc3ccc(Cl)cc23)C1 (stereo unspecified) read 31.83%.

3 of the entries, repeated:

- CCOc1ccc(C(=O)CCN(C)C)cc1 : -0.5962%
- Cc1nn(C)c(C)c1CCCNC(=O)NC[C@@H](C)O : -9.311%
- NC1CCN(CC(F)(F)F)C1 (stereo unspecified) : -2.814%